Reference: article PMC11365554
Results are given in words; binding and its absence hold for the method and conditions named. Binding seen in cells or lysates may run through a third protein. A yes stands for co-enrichment or nearness to the bait. Other partners may have been found.

Target: CCDC188 (mouse (endogenous in testis))
Test: affinity purification with mass spectrometry; IP-MS in mouse testis protein lysates with anti-CCDC188 antibody or IgG antibody; two independent replicates for each group

binding	Binder
binds	SUN5 (protein, UniProt Q9DA32 1-373) MPRTRNIGALCTLPEDTTHSGRPRRGVQRSYISRMAEPAPANMNDPLLLPLRMNTPGLSLVQILLGYMSWLTYLACFLRTQTQQVFLNTCRCKLFCQKVMEKMGLLVLCVFGFWMFSMHLPSKVEVWQDDSINGPLQSLRMYQEKVRHHTGEIQDLRGSMNQLIAKLQKMEAISDEQKMAQKIMKMIQGDYIEKPDFALKSIGASIDFEHTSATYNHDKARSYWNWIRLWNYAQPPDVILEPNVTPGNCWAFASDRGQVTIRLAQKVYLSNITLQHIPKTISLSGSPDTAPKDIVIYGLESLPREEVFLGAFQFQPENVIQMFQLQNLPPRSFAAVKVKISSNWGNPRFTCMYRVRVHGSVTPPKDSHLEPLS
binds	PMFBP1 (protein, UniProt Q9WVQ0 1-1022) MLKLKGELRTAKGLKNEAGERDRDVSNLNSKLLSLQLDIKNLHDVCKRQGKTLQENQLCVEEAMLKANHNKKQAQTLVFTDNQMDFRVNKQYHLRQLQQLKKKLLTLQQELEFRTQELQASYCSLLQYQSILEKQTSDLLVLHRHCKLKEDEVILYEEEMGNHSKSTGEKLHLAQEQLALAGDKILSLERSLNLYRDKYQTSLSNIELLECQVKMLEGELSGLIGQDPENKGDHPKVRIYTSPCVIQEHQETLKRLSEVWQKVSEQDDLIQELRNKLACSNSLVLEREEALIKLQAEFASYTATHRHPPTSSEDCEDITKILKHLQEQKDSQCLHVEEYQNLVKDLRMELEAVSEQKKKIMKDMMKLELDLHGLREETSCVIEKKDKETVFLQYRLQDLQQQYTESQKLSLKKDKLLQDKDERLHELEKNLMQVQNSLREKEAELEKLQCTTKELDTSLQEARQSTSKIDCEALRAEIQKLKDSLEEAREQLKVSDQNLTQSKEEAHLSASSLEDAHRKIENCLLQDKQKEEVIKDLQSQLHKLQKESSKIEEERKHNRQRLQELSSELSEGQRRLSNAEKEKSLLQKTLDEDEKKIDELFHSTQVSEQKQRELTNSIRKLEEELLEIKGLLEEKREQLKKSKEQEKALEEEIEALRQEAKRKEKMAKEHLRKLDEEKENLQAELTSRSSHLDSSLNKYNSSQKVIQELNAEIARQKDSIMILQTQLDSAIQKEKNCFQNMVSKEAYEELVRKSGNCQDDLTQALEKLTQATSETKSLNRSLQQTQERKAQLEDEIAAYEERMKKLNMELKKLQGFQQQSEQEVHNFDKKLEEMSNQVLQWQRQHQSDLKMLAAKESQLREFQEEMATLRESLLADEKEPYSPPAKLTPKETCRHHRENDQIMNNVEQWAKEQKIANEKLGNKLREQVKYIAKLTGEKDHLHNVMVHLQQENKKLKNEIEEKKLKAGNPRICVKAFPPNKLEPSQKGKLCCALGWRGIPQDLTPKTDHKYMGLPHSSGSSYC
